Measured values as given in publication doi:10.1101/697953.
These are yes or no findings as the source states them, for the method shown. Some results given as binding are weak or reduced against the parent protein; the word gives no strength.

Molecular target: full-length chlamydial MreB (Chlamydia trachomatis serovar L2) (UniProt O84715)
Assay: two-hybrid

Substance: ΔN22 chlamydial MreB (from UniProt O84715 23-366) (domain or fragment)
- binding: binds
